This assay in a line: qHTS Assay to Find Inhibitors of Chronic Active B-Cell Receptor Signaling. The settings on record: ABC-DLBCL IkBa-CBG/CBR reporter, luminescence ratio (green luciferase fused to IkBa over red control in TMD8 lymphoma cells), 4 h. The procedure, abridged:
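Compounds up to 46 uM were incubated four hours with TMD8 cells whose green CBG68 luciferase is fused to IkappaBalpha; red CBR luminescence normalised the signal, and concentration-effect curves were fitted to fusion, red and ratio data.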

The mark [1] stands for this setting: measured here: CBR red luminescence, cell number.
Where [2] appears, read: measured here: IkBa-CBG green luminescence.

Some of the results follow. These are further read-outs of the screen, such as a control signal, another cell line or another target. No call is given for them. Most of these compounds were active or inconclusive in the main read-out, so they are no random draw. Potencies come from curve fits of mixed quality, noted in brackets.

Broadly, the AC50 is the concentration at which the activity in the assay is half-maximal. `Cn1c(CCN2CCCCC2)nc2cc(NC(=O)NC3CCCCC3)ccc21`: the AC50 under setting [1] is 5.62 µM [falling, partial curve, poor fit].

For the compound `Cc1cc2c(cc1C)N(CC(=O)N1CCCC1)C(=O)CC(c1ccccc1)=N2`, the half-maximal activity concentration (AC50) under setting [1] is 2.31 µM [rising, partial curve].

For the compound `Cc1nc2sc(C(c3cccc(F)c3)N3CCC(C)CC3)c(O)n2n1` (stereo not drawn), the AC50 under setting [1] was 29.1 µM [falling, single point].

`COc1cc2c(C)nc3c(cnn3-c3ccccc3)c2cc1OC`: the half-maximal activity concentration (AC50) under setting [1] was 10 µM [rising, partial curve].

On to `CC1(C)CCc2c([nH]c3ccccc3c2=O)O1`, for which the AC50 under setting [1] was 22.4 µM [rising, single point].

As to `Cc1ccc(-c2csc(NC(=O)CN3C(=O)CCC3=O)n2)cc1`, under setting [1], the concentration at half-maximal activity (AC50) was 5.01 µM [falling, full curve].

Take `CCCNc1nc2c(c(=O)n(C)c(=O)n2C)n1CCc1ccccc1`: the AC50 under setting [1] is 35.5 µM [falling, single point].

For `O=[N+]([O-])c1ccc(Cl)c2cccnc12`, the AC50 under setting [1] is 22.4 µM [falling, partial curve, poor fit].

Consider `CS(=O)(=O)N1CCN(c2nc(-c3ccccc3)cs2)CC1`, for which the AC50 under setting [1] is 29.1 µM [rising, single point].

Take `COc1ccc(-n2c(SCC(N)=O)nc3sc4c(c3c2=O)CCC4)cc1`: the AC50 under setting [1] was 6.31 µM [rising, full curve, poor fit].

Consider `Cc1ccc(CNC(=O)C2CCN(S(=O)(=O)N3CCCCC3)CC2)cc1`, for which, under setting [1], the AC50 is 5.62 µM [rising, single point].

Take `CC(=O)Nc1ccc(SCC(=O)Nc2ccc(Cl)cn2)cc1`: the concentration at half-maximal activity (AC50) under setting [1] was 35.5 µM [falling, single point].

On to `CC1(C)Cc2c(sc3c2c(=N)n(Cc2ccco2)c(=O)n3Cc2ccccc2)CO1`, for which the half-maximal activity concentration (AC50) under setting [1] is 9.2 µM [falling, partial curve, poor fit].

On to `Cc1[nH]c2ccccc2c1C(=O)CSc1ccc(F)cc1`, for which the AC50 under setting [1] is 9.2 µM [rising, partial curve].

For `Cc1c(C#N)c(NC(=O)CCl)n(Cc2cccs2)c1C`, under setting [1], the concentration at half-maximal activity (AC50) is 0.562 µM [falling, full curve, poor fit].

For the compound `Cc1ccc(NC(=S)NCC2CCN(C(C)c3ccccc3)C2)cc1` (stereo not drawn), under setting [1], the concentration at half-maximal activity (AC50) was 0.794 µM [rising, full curve].

Regarding `O=C(Nc1nnc(C2CC2)s1)c1cc2ccccc2o1`, under setting [1], the AC50 is 1.46 µM [falling, full curve].

`O=C(CNC(=S)N(CCCN1CCOCC1)Cc1cccs1)NCc1ccc(Cl)cc1`: under setting [1], the AC50 was 11.2 µM [falling, partial curve, poor fit].

On to `CCOC(=O)CCSCC(=O)Nc1cc(C)on1`, for which the AC50 under setting [1] was 14.1 µM [rising, partial curve, poor fit].

Consider `Cc1ccc(C(=O)/C=C/c2ccccc2)o1`, for which, under setting [1], the AC50 was 29.1 µM [falling, single point].

On to `CCOc1ccccc1Nc1ncnc2c1cnn2-c1ccc(C)cc1`, for which the AC50 under setting [1] is 6.31 µM [falling, full curve, poor fit].

As to `NC(=O)c1ccc(-c2ncc(-c3ccccc3)o2)cc1`, the AC50 under setting [2] was 11.2 µM [falling, partial curve, poor fit].

For `Cc1nnc(NC2(C(F)(F)F)C(=O)Nc3c2c(=O)n(C)c(=O)n3C)s1` (stereo not drawn), the half-maximal activity concentration (AC50) under setting [1] was 0.651 µM [falling, partial curve, poor fit].

For the compound `COc1ccc(CN(C(=O)CN2C(=O)NC3(CCC(C)CC3)C2=O)C(C)Cc2cccs2)cc1` (stereo not drawn), the concentration at half-maximal activity (AC50) under setting [1] is 3.66 µM [rising, full curve, poor fit].

Regarding `COc1cccc(NC(=O)CCCOc2cc(=O)n(C)c3ccccc23)c1`, the AC50 was 0.517 µM [rising, full curve, poor fit] under setting [1] and 0.58 µM [falling, partial curve, poor fit] under setting [2].

Consider `C=CCNC(=S)N/N=C/c1ccc(C(F)(F)F)cc1`, for which the AC50 under setting [2] was 35.5 µM [falling, partial curve, poor fit].

For `O=C(Nc1ccc2c(c1)CCC2)c1cc(=O)[nH]c2ccccc12`, the AC50 under setting [1] was 3.98 µM [rising, partial curve, poor fit].

Consider `C(=N\Nc1nc(-c2ccccc2)cs1)/c1ccncc1`, for which the AC50 under setting [1] was 6.31 µM [falling, partial curve, poor fit].

For the compound `Cc1ccc(C2=CC(=O)C[C@H](c3ccc(F)cc3)C2)cc1`, under setting [1], the concentration at half-maximal activity (AC50) is 5.17 µM [rising, partial curve, poor fit].

As for `COc1ccc(CCN2CC(C(=O)OCC(=O)N(C)Cc3ccccc3)CC2=O)cc1OC` (stereo not drawn), the concentration at half-maximal activity (AC50) under setting [1] is 29.1 µM [falling, single point].

As to `C=CCSc1nc2ccccc2n1C(=O)/C=C/c1cc(OC)c(OC)c(OC)c1`, the AC50 under setting [1] was 10 µM [falling, partial curve].

As to `COc1cc(SC)ccc1C(=O)Nc1cccc(C2OCCCO2)c1`, the AC50 under setting [1] is 1.58 µM [falling, full curve].

Turning to `Cc1ccccc1OCCCC(=O)Nc1nccs1`, the concentration at half-maximal activity (AC50) under setting [1] was 29.1 µM [falling, single point].

For the compound `CC1CCCC(C)N1C(=O)COC(=O)CSc1ccc([N+](=O)[O-])cc1` (stereo not drawn), the AC50 under setting [1] is 2.31 µM [falling, full curve, poor fit].

With `CC(C)(C)C(=O)/C=C1\SCC(=O)N1CC(=O)N1CCN(c2ccccc2)CC1`, the AC50 under setting [1] is 25.9 µM [rising, single point].

Turning to `CCCCNC(=O)c1ccc2c(SCC(=O)O)c3c(nc2c1)CCCC3`, the AC50 under setting [1] was 1.3 µM [rising, full curve, poor fit].

Consider `CCOC(=O)N1CCN(CC(O)COC2CC(C)CCC2C(C)C)CC1` (stereo not drawn), for which, under setting [1], the half-maximal activity concentration (AC50) is 14.6 µM [rising, partial curve, poor fit].

With `Nc1c(C(=O)Nc2ccccc2)sc2nc(-c3cccnc3)ccc12`, the AC50 under setting [1] is 11.2 µM [falling, single point].

Regarding `N=C1/C(=C\c2ccc(OCc3ccccc3)cc2)C(=O)N=C2SC(N3CCCC3)=NN12`, the AC50 under setting [1] is 22.4 µM [rising, single point].

Take `Cc1ccc(-n2cc(-c3ccccc3)c3c(N4CCCCC4)ncnc32)cc1`: under setting [1], the half-maximal activity concentration (AC50) is 6.31 µM [rising, single point].

Consider `CC(=O)c1cc(C(=O)Nc2ccccc2C(=O)O)oc1C`, for which the AC50 under setting [1] is 0.708 µM [falling, full curve].

In the case of `Cc1ccc(C(=O)OCC(=O)c2ccccc2)cc1`, under setting [1], the half-maximal activity concentration (AC50) was 35.5 µM [falling, single point].
